# Reference: patent US10913772B2, “Peptide for preventing or treating inflammatory diseases and use thereof” (KINE SCIENCES Co., Ltd., priority 2016, dated 2021)
# Part of at least one peptide drawing is inferred or uncertain, most often the ends. No end group written: not given here.
# Assays:
# [1] = system: collagen-induced arthritis (CIA) mouse model; assay: Arthritis progression index in collagen-induced arthritis mouse model; format: in vivo, mouse (DBA/1J); set-up: key to arthritis progression index: 0-4 per leg, summed over four legs (0-16), mean of two observers
# Procedure: In Example 2, using a collagen-induced arthritis mouse model in the following document, a therapeutic effect of a RGD dimer for a representative inflammatory disease, rheumatoid arthritis was confirmed (Nat Protoc. 2007; 2(5):1269-75.).
# A collagen-induced arthritis (CIA) mouse model was prepared as follows, as an autoimmune disease-based arthritis model with characteristics similar to human rheumatoid arthritis.
# First, a bovine type II collagen (Chondrex Corporation, USA) and a Freund's complete adjuvant (Chondrex Corporation, USA) were mixed at a ratio of 1:1 and emulsified, and then 50 μl of the emulsified collagen solution was injected intradermally into the tail of a 6-week-old DBA/1J mouse to induce primary immunization. At two weeks after the primary immunization, the bovine type II collagen and the Freund's complete adjuvant were mixed at a ratio of 1:1 and emulsified, and then 50 μl of the emulsified collagen solution was injected intradermally into the tail of the mouse again to induce secondary immunization (boosting).
# After the secondary immunization, from the next day, the peptide of the present invention ([…] (1 μmole)) was administered intraperitoneally three times a week and a PBS-treated group was used as a control (Vehicle control). The preparation process of the collagen-induced arthritis mouse model and the administration time of the peptide were schematically illustrated in FIG. 1.
# In order to investigate the development of arthritis progression according to the peptide treatment of the present invention, the deepening degree of arthritis with time was measured by evaluating an arthritis progression index. Two observers who were unaware of the specific experimental conditions evaluated progression of arthritis three times a week. In this case, the arthritis progression index was evaluated by 0 to 4 scores per leg according to an arthritis progression evaluation standard by Rossoliniec and the like in Table 1 below to be represented by a total of 0 to 16 scores (a sum of four legs), and thereafter, two observers calculated an average value of the evaluated results to digitize the severity of arthritis.
# In order to confirm the efficacy for each treatment concentration of the peptide according to the present invention, by using the same method as Example 2-2, an arthritis therapeutic effect according to the peptide treatment at various concentrations (0.1 μmole, 1 μmole, and 10 μmole) was evaluated by the arthritis progression index.
# Methotrexate (MTX), one of drugs which are used as arthritis therapeutic agents in a current clinical practice, had excellent anti-inflammatory and arthritis therapeutic effects as an immunodepressant, but may have side effects such as toxicity to normal cells, oral ulcer, alopecia, interstitial pneumonia, bone marrow suppression, and the like. As a result, the methotrexate is known as a drug that needs to pay close attention after medication with sufficient medication counseling. As a result, the arthritis therapeutic effect according to the peptide treatment at various concentrations was compared with that of the case of treating methotrexate (1 mg/kg).
# [2] = system: imiquimod-induced psoriatic mouse model; assay: Imiquimod-induced psoriatic mouse model: H&E tissue staining and epidermis thickness; format: in vivo, mouse (C57BL/6); settings: 0.01 to 1 μg/kg
# Th17 cells = assay: Th17 cell distribution in lymph nodes of psoriasis-induced mouse; format: in vivo, mouse (C57BL/6); settings: 0.01 to 1 μg/kg; vehicle control nearly 1.5%, normal 0.5%; FIG. 8
substance,measurement,setting,value
"RDGRDG [RDG dimer, RDGRDG]",swelling and redness symptoms around the ankle joint (visual check),"[1]; 1 μmole i.p., compared with the control, FIG. 3",remarkably mitigated
same,arthritis progression index,"[1]; Table 2, 1 μmole i.p. three times a week, day 17",0.0
same,arthritis progression index,"[1]; Table 2, 1 μmole i.p. three times a week, day 20",0.0
same,arthritis progression index,"[1]; Table 2, 1 μmole i.p. three times a week, day 22",0.5
same,arthritis progression index,"[1]; Table 2, 1 μmole i.p. three times a week, day 25",0.5
same,arthritis progression index,"[1]; Table 2, 1 μmole i.p. three times a week, day 27",0.7
same,arthritis progression index,"[1]; Table 2, 1 μmole i.p. three times a week, day 29",1.7
same,arthritis progression index,"[1]; Table 2, 1 μmole i.p. three times a week, day 31",3.7
same,arthritis progression index,"[1]; Table 2, 1 μmole i.p. three times a week, day 34",5.3
same,arthritis progression index,"[1]; Table 2, 1 μmole i.p. three times a week, day 36",6.7
same,arthritis progression index,"[1]; Table 2, 1 μmole i.p. three times a week, day 38",8.5
same,arthritis progression index,"[1]; Table 2, 1 μmole i.p. three times a week, day 41",10.3
same,arthritis progression index,"[1]; Table 2, RDG dimer 1 μmole i.p. three times a week, day 14, 0 to 16 scores (sum of four legs)",0.0
same,arthritis progression index,"[1]; Table 3, 0.1 μmole, day 14",0.0
same,arthritis progression index,"[1]; Table 3, 0.1 μmole, day 17",0.0
same,arthritis progression index,"[1]; Table 3, 0.1 μmole, day 20",0.3
same,arthritis progression index,"[1]; Table 3, 0.1 μmole, day 22",0.4
same,arthritis progression index,"[1]; Table 3, 0.1 μmole, day 24",0.6
same,arthritis progression index,"[1]; Table 3, 0.1 μmole, day 27",0.6
same,arthritis progression index,"[1]; Table 3, 0.1 μmole, day 29",1.4
same,arthritis progression index,"[1]; Table 3, 0.1 μmole, day 31",2.4
same,arthritis progression index,"[1]; Table 3, 0.1 μmole, day 34",2.7
same,arthritis progression index,"[1]; Table 3, 0.1 μmole, day 36",4.1
same,arthritis progression index,"[1]; Table 3, 1 μmole, day 14",0.0
same,arthritis progression index,"[1]; Table 3, 1 μmole, day 17",0.0
same,arthritis progression index,"[1]; Table 3, 1 μmole, day 20",0.0
same,arthritis progression index,"[1]; Table 3, 1 μmole, day 22",0.1
same,arthritis progression index,"[1]; Table 3, 1 μmole, day 24",0.6
same,arthritis progression index,"[1]; Table 3, 1 μmole, day 27",0.6
same,arthritis progression index,"[1]; Table 3, 1 μmole, day 29",0.7
same,arthritis progression index,"[1]; Table 3, 1 μmole, day 31",2.6
same,arthritis progression index,"[1]; Table 3, 1 μmole, day 34",5.1
same,arthritis progression index,"[1]; Table 3, 1 μmole, day 36",5.7
same,arthritis progression index,"[1]; Table 3, 10 μmole, day 14",0.0
same,arthritis progression index,"[1]; Table 3, 10 μmole, day 17",0.0
same,arthritis progression index,"[1]; Table 3, 10 μmole, day 20",0.7
same,arthritis progression index,"[1]; Table 3, 10 μmole, day 22",1.6
same,arthritis progression index,"[1]; Table 3, 10 μmole, day 24",2.4
same,arthritis progression index,"[1]; Table 3, 10 μmole, day 27",2.4
same,arthritis progression index,"[1]; Table 3, 10 μmole, day 29",2.6
same,arthritis progression index,"[1]; Table 3, 10 μmole, day 31",3.0
same,arthritis progression index,"[1]; Table 3, 10 μmole, day 34",4.3
same,arthritis progression index,"[1]; Table 3, 10 μmole, day 36",5.0
same,arthritis progression index compared with control mouse,"[1]; all the concentrations (0.1, 1 and 10 μmole), FIG. 4",significantly decreased
same,"effect of improving psoriasis by H&E staining (thinning of the epidermis, generation of follicles)","[2]; SC daily, FIG. 6",effect of improving psoriasis was confirmed
same,epidermis thickness,"[2]; vehicle control about 60 μm, FIG. 7",about 30 μm
same,Th17 cells (CD4+IL-17+ population) in lymph nodes,Th17 cells,decreased to a similar extent to the positive control (MTX)
